Experimental data from article doi:10.1101/2025.03.26.645569.

Target: T1, Punctin-GFP (Punctin/MADD-4 tagged at the C-terminus with GFP, knock-in) (C. elegans) (UniProt P90884)
T1 sequence: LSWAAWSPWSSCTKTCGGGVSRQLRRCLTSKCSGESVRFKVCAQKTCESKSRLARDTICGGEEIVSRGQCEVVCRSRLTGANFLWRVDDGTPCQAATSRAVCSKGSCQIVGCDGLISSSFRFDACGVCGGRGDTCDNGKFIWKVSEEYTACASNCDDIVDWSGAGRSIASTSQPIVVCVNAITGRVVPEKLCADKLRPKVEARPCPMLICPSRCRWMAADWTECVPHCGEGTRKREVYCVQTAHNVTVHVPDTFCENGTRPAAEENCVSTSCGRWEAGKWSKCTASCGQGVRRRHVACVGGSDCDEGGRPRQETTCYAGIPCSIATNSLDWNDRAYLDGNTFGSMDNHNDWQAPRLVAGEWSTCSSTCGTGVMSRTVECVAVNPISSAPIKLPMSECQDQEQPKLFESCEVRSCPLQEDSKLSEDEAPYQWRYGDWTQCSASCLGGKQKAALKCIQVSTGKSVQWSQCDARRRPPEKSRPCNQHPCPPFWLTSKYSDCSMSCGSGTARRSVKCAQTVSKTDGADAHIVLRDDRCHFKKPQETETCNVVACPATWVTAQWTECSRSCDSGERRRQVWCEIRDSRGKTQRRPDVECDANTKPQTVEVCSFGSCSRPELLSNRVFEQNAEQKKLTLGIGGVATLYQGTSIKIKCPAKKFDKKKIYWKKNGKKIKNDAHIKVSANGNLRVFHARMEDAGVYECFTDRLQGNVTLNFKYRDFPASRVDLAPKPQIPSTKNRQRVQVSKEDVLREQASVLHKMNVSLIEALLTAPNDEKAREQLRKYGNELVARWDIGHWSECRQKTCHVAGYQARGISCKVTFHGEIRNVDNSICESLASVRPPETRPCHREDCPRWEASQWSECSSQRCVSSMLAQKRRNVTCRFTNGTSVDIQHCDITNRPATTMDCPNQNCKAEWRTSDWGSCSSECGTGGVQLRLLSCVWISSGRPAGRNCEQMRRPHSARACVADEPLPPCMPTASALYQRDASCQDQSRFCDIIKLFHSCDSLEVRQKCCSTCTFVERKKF
Test: co-IP

binding: no binding
Substance: CLE-1C-wSC (short isoform of CLE-1 tagged at the C-terminus with wormScarlet, knock-in) (C. elegans)

No constants are given. Whether binding was seen depends on the method and setting. In cells and extracts the contact can be indirect. Sequences can lack the tags named with a protein.
